PubChem BioAssay AID1259254 – NCATS | 2017
Test: 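Gene knock-downs that lead to re-replication, shown by excess G2 DNA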 (primary screen). Cell system: human HCT116 colorectal cancer cells. Knock-down reagent: single siRNA against human genes. Duration: 3 days. Measured: 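Imaged Hoechst DNA stain sorts each cell into a cycle phase by DNA amount; per plate, G2 fraction set to 0% for non-targeting and 100% for GMNN siRNA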. Reading the numbers: G2 robust z-score and G2 cells, % of GMNN control: higher = more G2 cells, more excess DNA replication. Call rule: 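Active siRNAs have a G2 robust z of 5 or more median absolute deviations over the median, which in these data means about 38% or higher of GMNN control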.
The deposit covers about 59,000 reagents; this is a part drawn at random. Over the whole deposit, about 1,550 (2.6%) are marked active. 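G2 share is only a proxy for re-replication; each gene was hit by three separate siRNAs, and active genes were retested.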 Reagents against one gene are numbered here. Not all columns of the deposit are shown. No sequences are given here. Not stated in the record: the amount of reagent.

CNTNAP5 #1 scored G2 robust z-score 0.787; G2 cells, % of GMNN control 8.5; inactive.
Against CNTNAP5 #2, the values are G2 robust z-score 1.8; G2 cells, % of GMNN control 15.6; inactive.
CNTNAP5 #3 scored G2 robust z-score -0.402; G2 cells, % of GMNN control 0.137; inactive.
After knock-down of TIPE1 #1, the record shows G2 robust z-score 0.781; G2 cells, % of GMNN control 8.46; inactive.
With knock-down of TIPE1 #2, the record shows G2 robust z-score 0.409; G2 cells, % of GMNN control 5.85; inactive.
For TIPE1 #3, the values are G2 robust z-score -0.619; G2 cells, % of GMNN control -1.38; inactive.
With knock-down of EIF2AK2 #1, the screen gave G2 robust z-score -0.337; G2 cells, % of GMNN control 0.596; inactive.
For EIF2AK2 #2 the deposit lists G2 robust z-score -1.26; G2 cells, % of GMNN control -5.93; inactive.
After knock-down of EIF2AK2 #3, the screen gave G2 robust z-score -0.554; G2 cells, % of GMNN control -0.931; inactive.
Against SKAP1 #1 the deposit lists G2 robust z-score 0.417; G2 cells, % of GMNN control 5.9; inactive.
Silencing of SKAP1 #2 resulted in: G2 robust z-score -0.37; G2 cells, % of GMNN control 0.367; inactive.
Knock-down of SKAP1 #3 gave: G2 robust z-score -0.971; G2 cells, % of GMNN control -3.87; inactive.

Quoted from the listing, 2 entries:
CNTNAP5 #1 — G2 robust z-score: 0.787; G2 cells, % of GMNN control: 8.5; activity call: inactive
CNTNAP5 #2 — G2 robust z-score: 1.8; G2 cells, % of GMNN control: 15.6; activity call: inactive
